Assay results published in publication PMC5473911.
No constants are given. Whether binding was seen depends on the method and setting. In cells and extracts the contact can be indirect. Some results given as binding are weak or reduced against the parent protein; the word gives no strength. For part of these data: Tags and fused reporters may be left off the sequences shown.

The chains behind the UniProt entries cited, without tags or fusion partners.
UniProt Q92993: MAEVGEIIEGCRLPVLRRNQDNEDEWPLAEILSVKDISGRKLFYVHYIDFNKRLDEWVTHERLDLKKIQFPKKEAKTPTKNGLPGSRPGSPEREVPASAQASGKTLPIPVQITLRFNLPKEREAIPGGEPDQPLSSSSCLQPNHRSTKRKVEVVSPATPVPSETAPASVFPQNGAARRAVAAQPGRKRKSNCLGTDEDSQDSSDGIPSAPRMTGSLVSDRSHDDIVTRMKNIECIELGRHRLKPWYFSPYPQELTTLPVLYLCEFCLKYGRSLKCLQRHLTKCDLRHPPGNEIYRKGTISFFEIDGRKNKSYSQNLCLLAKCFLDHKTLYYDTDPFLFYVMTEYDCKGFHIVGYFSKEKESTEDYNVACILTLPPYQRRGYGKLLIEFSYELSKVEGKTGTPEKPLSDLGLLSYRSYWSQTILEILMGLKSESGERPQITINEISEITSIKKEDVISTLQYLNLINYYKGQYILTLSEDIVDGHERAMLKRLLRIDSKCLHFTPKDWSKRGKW

Experiments:
[1] = biological target: T1, GST-PXR (human) (UniProt O75469); test: pull-down; E. coli BL21 DE3 codon plus cotransformed with pGEX6p2-PXR or pGEX6p2 and pET28a-TIP60; glutathione agarose beads; washed with 1X PBS, 0.2% Triton X-100, 300 mM NaCl; blot with anti-GST and anti-His
T1 sequence: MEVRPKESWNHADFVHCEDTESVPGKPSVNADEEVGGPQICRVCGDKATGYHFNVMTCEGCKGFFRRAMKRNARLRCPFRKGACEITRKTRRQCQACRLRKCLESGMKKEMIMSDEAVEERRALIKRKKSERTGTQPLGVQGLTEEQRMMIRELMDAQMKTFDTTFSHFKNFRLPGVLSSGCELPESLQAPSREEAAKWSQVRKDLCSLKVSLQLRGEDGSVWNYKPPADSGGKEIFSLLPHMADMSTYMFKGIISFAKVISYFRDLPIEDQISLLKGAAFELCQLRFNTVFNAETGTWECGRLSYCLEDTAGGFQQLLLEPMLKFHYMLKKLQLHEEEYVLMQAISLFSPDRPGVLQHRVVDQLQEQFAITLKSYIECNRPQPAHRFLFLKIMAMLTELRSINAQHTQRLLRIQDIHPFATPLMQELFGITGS

[2] = biological target: T2, GFP-PXR (full-length) (human) (UniProt O75469); test: co-IP; Cos-1 cells transfected with GFP-PXR and RFP-TIP60; lysate (20 mM Tris-Cl pH 8.0, 150 mM NaCl, 2 mM EDTA, 0.5% Triton X-100, 0.1% SDS) incubated with anti-PXR antibody overnight at 4 °C, protein A Sepharose; blot with anti-TIP60
T2 sequence: T1 sequence

[3] = biological target: T3, endogenous PXR (human (endogenous in HepG2)) (UniProt O75469); test: co-IP; endogenous PXR immunoprecipitated from HepG2 cells with anti-PXR or control mouse IgG; blot with anti-PXR or anti-TIP60
T3 sequence: T1 sequence

## His-TIP60 (from UniProt Q92993 1-513) (enzyme)
[1]
  binding: binds

## RFP-TIP60 (from UniProt Q92993 1-513) (enzyme)
[2]
  binding: binds

## endogenous TIP60 (from UniProt Q92993 1-513) (enzyme)
[3]
  binding: binds
